According to article PMC11352945, “Anticancer Activity of Benzo[a]phenoxazine Compounds Promoting Lysosomal Dysfunction” (Cells, 2024):
Some entries repeat one wording, which the source may state once for all of them.

Columns and labels:
RKO cell lysosomes = assay: Fluorescence co-staining with LysoSensor Green and DAPI, RKO; type: cell-based, human; conditions: IC50 concentration, 3 h, LysoSensor Green 2 μM
MCF7 cell lysosomes = assay: Fluorescence co-staining with LysoSensor Green and DAPI, MCF7; type: cell-based, human; conditions: MCF7, IC50 concentration, 3 h, LysoSensor Green 2 μM

Structure (SMILES): CCCNc1cc2oc3cc(=[N+](CCC)CCC)ccc-3nc2c2ccccc12 [A36]
- Intracellular localization of compound far-red fluorescence (RKO cell lysosomes): co-localized with the LysoSensor Green lysosome staining
- Intracellular localization of compound far-red fluorescence (MCF7 cell lysosomes): co-localized with the LysoSensor Green lysosome staining

Structure (SMILES): CCCNc1cc2oc3cc(=NCC)c(C)cc-3nc2c2ccccc12 [C9]
- Intracellular localization of compound far-red fluorescence (RKO cell lysosomes): co-localized with the LysoSensor Green lysosome staining
- Intracellular localization of compound far-red fluorescence (MCF7 cell lysosomes): co-localized with the LysoSensor Green lysosome staining

Structure (SMILES): ClCCCN=c1cc2oc3c4c5c(cc3nc-2c2ccccc12)CCCN5CCC4 [A42]
- Intracellular localization of compound far-red fluorescence (RKO cell lysosomes): co-localized with the LysoSensor Green lysosome staining
- Intracellular localization of compound far-red fluorescence (MCF7 cell lysosomes): co-localized with the LysoSensor Green lysosome staining
